Data from PMC11288436.
No constants are given. Whether binding was seen depends on the method and setting. Binding seen in cells or lysates may run through a third protein. Some binding calls cover weakened binding; strength is not graded here. Sequences can lack the tags named with a protein.

Target: T1, Myc-tagged Rab5A (porcine) (UniProt Q06AU6)
T1 sequence: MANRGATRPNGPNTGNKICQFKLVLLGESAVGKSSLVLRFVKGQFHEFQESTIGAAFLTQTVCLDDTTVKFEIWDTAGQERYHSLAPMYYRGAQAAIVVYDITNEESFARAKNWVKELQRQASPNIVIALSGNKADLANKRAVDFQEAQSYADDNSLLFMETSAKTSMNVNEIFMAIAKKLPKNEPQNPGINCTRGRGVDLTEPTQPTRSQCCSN
Experiment: co-IP

binding: binds
B1: Flag-tagged TMEM239 (transmembrane protein 239), expressed in HEK293T cells (protein, UniProt F1S8A1 1-152)
chain: VMQQLRVETDATGAGEGPQRAVPWTAWLTRDSWVRWCMCHMPPSWAQWWITSGWRQPLQRVLWGLEGILYLLLALMLCHALFTTGSHLLSSLWPVVAAAWRHLLPAVLLLALSALPALLFMASFLLLFSTLLSLVGLLTSMSHPGLAQDLDQ
